According to paper PMC6739341:
No constants are given. Whether binding was seen depends on the method and setting. Binding seen in cells or lysates may run through a third protein. These calls come from enrichment with a bait or labelling near it, and not all partners need be listed. Tags and fused reporters may be left off the sequences shown.

The chains behind the UniProt entries cited, without tags or fusion partners.
UniProt Q13263: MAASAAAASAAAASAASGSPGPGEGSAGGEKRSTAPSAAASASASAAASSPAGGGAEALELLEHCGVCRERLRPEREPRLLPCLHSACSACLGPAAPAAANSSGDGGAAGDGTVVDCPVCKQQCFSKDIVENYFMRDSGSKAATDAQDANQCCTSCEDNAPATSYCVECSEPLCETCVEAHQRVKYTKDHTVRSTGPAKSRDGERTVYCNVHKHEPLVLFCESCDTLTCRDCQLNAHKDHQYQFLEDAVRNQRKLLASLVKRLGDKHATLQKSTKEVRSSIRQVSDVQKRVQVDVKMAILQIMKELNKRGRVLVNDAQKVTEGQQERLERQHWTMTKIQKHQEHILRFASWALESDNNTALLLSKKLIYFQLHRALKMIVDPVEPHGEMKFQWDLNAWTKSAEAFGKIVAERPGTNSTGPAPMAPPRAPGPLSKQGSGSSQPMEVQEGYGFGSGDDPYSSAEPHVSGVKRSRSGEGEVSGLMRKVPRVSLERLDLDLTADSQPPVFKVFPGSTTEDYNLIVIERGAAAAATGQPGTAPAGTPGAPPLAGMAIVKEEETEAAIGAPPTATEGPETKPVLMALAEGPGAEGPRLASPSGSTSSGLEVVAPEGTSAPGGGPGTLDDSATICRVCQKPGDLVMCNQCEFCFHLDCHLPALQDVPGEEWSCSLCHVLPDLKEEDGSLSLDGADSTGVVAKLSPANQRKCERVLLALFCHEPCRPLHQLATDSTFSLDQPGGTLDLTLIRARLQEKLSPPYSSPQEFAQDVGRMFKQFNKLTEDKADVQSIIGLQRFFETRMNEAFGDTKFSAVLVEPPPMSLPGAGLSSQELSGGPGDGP
UniProt P20700: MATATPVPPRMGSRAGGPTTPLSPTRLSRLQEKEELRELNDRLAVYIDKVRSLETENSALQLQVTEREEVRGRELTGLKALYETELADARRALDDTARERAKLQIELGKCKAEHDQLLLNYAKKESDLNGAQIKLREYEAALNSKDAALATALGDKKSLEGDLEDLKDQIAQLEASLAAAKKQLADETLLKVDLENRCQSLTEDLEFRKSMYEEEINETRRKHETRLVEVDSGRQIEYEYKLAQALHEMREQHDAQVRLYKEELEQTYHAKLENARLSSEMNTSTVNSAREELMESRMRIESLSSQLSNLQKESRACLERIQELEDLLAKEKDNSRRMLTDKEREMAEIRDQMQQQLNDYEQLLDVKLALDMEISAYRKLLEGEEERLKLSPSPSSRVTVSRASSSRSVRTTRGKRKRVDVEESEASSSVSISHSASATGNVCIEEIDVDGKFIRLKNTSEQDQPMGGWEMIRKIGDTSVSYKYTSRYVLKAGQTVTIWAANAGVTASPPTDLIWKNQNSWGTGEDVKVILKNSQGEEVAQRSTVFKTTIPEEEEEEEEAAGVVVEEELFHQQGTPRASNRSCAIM

T1: FLAG-HA-tagged full length C11orf46 (human) (UniProt Q8N8R7)
T1 sequence: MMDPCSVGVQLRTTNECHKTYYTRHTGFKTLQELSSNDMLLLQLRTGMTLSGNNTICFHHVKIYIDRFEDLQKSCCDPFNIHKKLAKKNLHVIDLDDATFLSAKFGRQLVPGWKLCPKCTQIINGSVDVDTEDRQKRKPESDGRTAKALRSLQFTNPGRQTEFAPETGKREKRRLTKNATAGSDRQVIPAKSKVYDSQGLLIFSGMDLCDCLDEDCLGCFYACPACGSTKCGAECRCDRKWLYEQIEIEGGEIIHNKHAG

B1: MBD-containing-associated factor (MCAF1), endogenous in HEK293 (protein, UniProt Q6VMQ6 1-1270)
chain: MDSLEEPQKKVFKARKTMRVSDRQQLEAVYKVKEELLKTDVKLLNGNHENGDLDPTSPLENMDYIKDKEEVNGIEEICFDPEGSKAEWKETPCILSVNVKNKQDDDLNCEPLSPHNITPEPVSKLPAEPVSGDPAPGDLDAGDPASGVLASGDSTSGDPTSSEPSSSDAASGDATSGDAPSGDVSPGDATSGDATADDLSSGDPTSSDPIPGEPVPVEPISGDCAADDIASSEITSVDLASGAPASTDPASDDLASGDLSSSELASDDLATGELASDELTSESTFDRTFEPKSVPVCEPVPEIDNIEPSSNKDDDFLEKNGADEKLEQIQSKDSLDEKNKADNNIDANEETLETDDTTICSDRPPENEKKVEEDIITELALGEDAISSSMEIDQGEKNEDETSADLVETINENVIEDNKSENILENTDSMETDEIIPILEKLAPSEDELTCFSKTSLLPIDETNPDLEEKMESSFGSPSKQESSESLPKEAFLVLSDEEDISGEKDESEVISQNETCSPAEVESNEKDNKPEEEEQVIHEDDERPSEKNEFSRRKRSKSEDMDNVQSKRRRYMEEEYEAEFQVKITAKGDINQKLQKVIQWLLEEKLCALQCAVFDKTLAELKTRVEKIECNKRHKTVLTELQAKIARLTKRFEAAKEDLKKRHEHPPNPPVSPGKTVNDVNSNNNMSYRNAGTVRQMLESKRNVSESAPPSFQTPVNTVSSTNLVTPPAVVSSQPKLQTPVTSGSLTATSVLPAPNTATVVATTQVPSGNPQPTISLQPLPVILHVPVAVSSQPQLLQSHPGTLVTNQPSGNVEFISVQSPPTVSGLTKNPVSLPSLPNPTKPNNVPSVPSPSIQRNPTASAAPLGTTLAVQAVPTAHSIVQATRTSLPTVGPSGLYSPSTNRGPIQMKIPISAFSTSSAAEQNSNTTPRIENQTNKTIDASVSKKAADSTSQCGKATGSDSSGVIDLTMDDEESGASQDPKKLNHTPVSTMSSSQPVSRPLQPIQPAPPLQPSGVPTSGPSQTTIHLLPTAPTTVNVTHRPVTQVTTRLPVPRAPANHQVVYTTLPAPPAQAPLRGTVMQAPAVRQVNPQNSVTVRVPQTTTYVVNNGLTLGSTGPQLTVHHRPPQVHTEPPRPVHPAPLPEAPQPQRLPPEAASTSLPQKPHLKLARVQSQNGIVLSWSVLEVDRSCATVDSYHLYAYHEEPSATVPSQWKKIGEVKALPLPMACTLTQFVSGSKYYFAVRAKDIYGRFGPFCDPQSTDVISSTQSS
B2: Lamina-associated protein 2, isoform alpha (LAP2A), endogenous in HEK293 (protein, UniProt P42166 1-694)
chain: MPEFLEDPSVLTKDKLKSELVANNVTLPAGEQRKDVYVQLYLQHLTARNRPPLPAGTNSKGPPDFSSDEEREPTPVLGSGAAAAGRSRAAVGRKATKKTDKPRQEDKDDLDVTELTNEDLLDQLVKYGVNPGPIVGTTRKLYEKKLLKLREQGTESRSSTPLPTISSSAENTRQNGSNDSDRYSDNEEGKKKEHKKVKSTRDIVPFSELGTTPSGGGFFQGISFPEISTRPPLGSTELQAAKKVHTSKGDLPREPLVATNLPGRGQLQKLASERNLFISCKSSHDRCLEKSSSSSSQPEHSAMLVSTAASPSLIKETTTGYYKDIVENICGREKSGIQPLCPERSHISDQSPLSSKRKALEESESSQLISPPLAQAIRDYVNSLLVQGGVGSLPGTSNSMPPLDVENIQKRIDQSKFQETEFLSPPRKVPRLSEKSVEERDSGSFVAFQNIPGSELMSSFAKTVVSHSLTTLGLEVAKQSQHDKIDASELSFPFHESILKVIEEEWQQVDRQLPSLACKYPVSSREATQILSVPKVDDEILGFISEATPLGGIQAASTESCNQQLDLALCRAYEAAASALQIATHTAFVAKAMQADISQAAQILSSDPSRTHQALGILSKTYDAASYICEAAFDEVKMAAHTMGNATVGRRYLWLKDCKINLASKNKLASTPFKGGTLFGGEVCKVIKKRGNKH

biological target: T1, FLAG-HA-tagged full length C11orf46 (human); experiment: affinity purification with mass spectrometry; FLAG-tagged C11orf46 or C11orf46∆ induced with 2 μg/ml doxycycline for 48 h in HEK293; lysate with Benzonase passed over anti-FLAG agarose column at 4 °C, washed with CS100-0.02 and CS500-0.02 buffers, eluted with 3X-FLAG peptide; silver stain and mass spectrometry

binding, binds:
KRAB associated protein (KAP1), endogenous in HEK293 (from UniProt Q13263 1-835)
Lamin B1 (LMNB1), endogenous in HEK293 (from UniProt P20700 1-586)
B1
B2
